# Test results published in PubChem BioAssay AID1347075 (National Center for Advancing Translational Sciences (NCATS), 2019).
# In all, about 400,000 compounds went through this assay and about 5,500 (1.4%) were called active. This list was built around the results that the source calls inconclusive (neither active nor inactive); the mix of calls is not that of the screen. Calls come from the whole dose curve; as a rule, active = well fitted cell-killing curve with a large enough effect; inconclusive = small, poorly fitted or top-dose-only effect, or effect the other way; inactive = flat fitted curve, though single readings scatter. A potency beside an inconclusive call is a rough fit, not a confirmed value.
# Experiment: qHTS assay for MDR1-selective chemotherapeutics: Primary screen using the parental adenocarcinoma cell KB-3-1; note: nearly all actives have a fitted effect of over 60% in size
# Details: KB-3-1 viability, CellTiter-Glo ATP luminescence, 72 h; activity change, negative = cytotoxic: at 46.1 µM (top of the series)
# Procedure, shortened: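 Screening of KB-3-1 cells (DMEM, 10% FBS, phenol-red free) ran from lowest to highest compound concentration; after 72 h at 37 °C viability was read luminescently and curves fitted.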
# % is set by controls: 0 for no effect and ±100 for the full control effect; potency is the fitted concentration of half-maximal effect.
SMILES,Potency,"activity change, negative = cytotoxic"
COc1cccc(OC)c1C(=O)Nc1ccc(S(=O)(=O)Nc2ncccn2)cc1,"inconclusive: 7.31 µM [rising, partial curve]",
Cc1ccc(OCC(=O)Nc2ccc3c(c2)sc(=O)n3C)cc1,"inconclusive: 20.6 µM [cytotoxic, single point]",
Cc1cccc(-n2nc3c(c2NC(=O)c2ccco2)CS(=O)C3)c1C (centres undefined),"inconclusive: 29.1 µM [rising, single point]",
CC(C)CCn1cnc2c1c(=O)[nH]c(=O)n2Cc1ccccc1,inactive,
O=C(Nc1cccnc1)c1ccc([N+](=O)[O-])s1,"inconclusive: 29.1 µM [cytotoxic, single point]",
CCOC(=O)COc1cc(Br)c(/C=N/Nc2ccccc2)cc1OC,"inconclusive: 29.1 µM [cytotoxic, single point]",
CC[C@H](C)Cc1cn([C@@H](CCCN=C(NC(=O)OC(C)(C)C)NC(=O)OC(C)(C)C)C(=O)NCCCCCCCCCCC(=O)N2CCN(C(=O)OC(C)(C)C)CC2)nn1,"inconclusive: 23.1 µM [cytotoxic, single point]",
CCCNC(=O)c1ccc2c(c1)nc(C)n2-c1cccc(C)c1,inactive,
CCOc1ccccc1Nc1nc(-c2sc(C)nc2C)cs1,"inconclusive: 32.6 µM [cytotoxic, single point]",
CCCC(=O)N1CCC1(C)C(=O)Nc1cc(-c2ccccc2)nn1C (centres undefined),,inconclusive: -18.2%
Cc1cc(NC(=O)CSCC(=O)Nc2ccccc2Oc2ccccc2)no1,"inconclusive: 29.1 µM [cytotoxic, single point]",
CN(C)c1ccc(N/C=C/C(=O)c2ccc(F)cc2)cc1,"inconclusive: 29.1 µM [cytotoxic, single point]",
COc1ccc2nc(N3CCN(C(=O)c4ccc([N+](=O)[O-])o4)CC3)sc2c1,active: 16.4 µM,
Cc1ccc(NC(=O)C2(C)CCN2Cc2csc3ccccc23)cc1 (centres undefined),"inconclusive: 18.4 µM [cytotoxic, single point]",
CC(=O)c1cccc(NC(=O)c2cc(-c3ccco3)nc3ccccc23)c1,"inconclusive: 23.1 µM [cytotoxic, single point]",
Cc1ccc(-c2nnc(-c3ccc4ccccc4c3)o2)cc1,"inconclusive: 18.4 µM [cytotoxic, single point]",
CCCC1=Nc2cc(C(=O)NCCN3CCOCC3)ccc2Sc2ccc(C)cc21,"inconclusive: 29.1 µM [cytotoxic, single point]",
COc1ccc(N=c2nc(-c3ccccc3)n(-c3ccc(C)cc3)s2)cc1,"inconclusive: 18.4 µM [cytotoxic, single point]",
O=C(O)/C=C/C(=O)NC1CC1,inactive,
COc1ccc(Sc2ccc(-c3nc4cnccn4c3NC3CCCCC3)cc2OC)cc1,"inconclusive: 29.1 µM [cytotoxic, single point]",
COc1ccc(/C=N/Nc2nonc2N)cc1,"inconclusive: 29.1 µM [cytotoxic, single point]",
CCOc1ccc(NC(=S)NNc2ccnc3cc(Cl)ccc23)cc1,"inconclusive: 20.6 µM [cytotoxic, single point]",

# Laid out differently: results already given.
SMILES | Potency | activity change, negative = cytotoxic
Cc1ccc(NC(=O)C2(C)CCN2Cc2csc3ccccc23)cc1 (centres undefined) | inconclusive: 18.4 µM [cytotoxic, single point] | 
CCCC1=Nc2cc(C(=O)NCCN3CCOCC3)ccc2Sc2ccc(C)cc21 | inconclusive: 29.1 µM [cytotoxic, single point] | 

# More structures

SMILES,Potency,"activity change, negative = cytotoxic"
O=C(COc1ccc([N+](=O)[O-])cc1)N1CCC(c2nc3ccccc3s2)CC1,"inconclusive: 23.1 µM [cytotoxic, single point]",
COc1ccc(OC)c2[nH]c(=O)c(CCNC(=O)COc3ccccc3)cc12,inactive,
O=S(=O)(NCCCN1CCOCC1)c1ccc(Cl)s1,"inconclusive: 5.17 µM [rising, partial curve]",
Cc1nnc(NC(=O)NC(C)N2C(=O)C3C4C=CC(C4)C3C2=O)s1 (centres undefined),"inconclusive: 1.3 µM [rising, full curve, poor fit]",
CCOc1ccc(N(C(C)C(=O)NCCSc2ccc(Cl)cc2)S(C)(=O)=O)cc1 (centres undefined),"inconclusive: 29.1 µM [cytotoxic, single point]",
Cc1cc(=O)oc2cc(OCc3nnc(-c4ccccc4Br)o3)ccc12,"inconclusive: 29.1 µM [cytotoxic, single point]",
Cc1cccc(OCC(=O)Nc2ccc(NC(=O)c3ccccc3)cc2)c1,"inconclusive: 0.184 µM [cytotoxic, full curve]",
O=C(CN1CCCc2ccccc21)Nc1cccc(S(=O)(=O)N2CCCC2)c1,inactive,
NC(N)=N/N=C/c1ccc(OCc2ccc(Cl)cc2)cc1,inactive,
Cc1ccc2nc(Nc3nc(CSc4nnnn4-c4ccccc4)cc(=O)[nH]3)nc(C)c2c1,,inconclusive: -3.82%
Cc1cc(/C=C2\Cc3ccccc3C2=O)c(C)n1-c1ccccc1,inactive,
COc1cc(-c2ccc(=O)[nH]n2)ccc1OC(F)F,active: 0.461 µM,
Cc1ccc(-c2csc3ncnc(SCC(=O)Nc4nnc(C)s4)c23)cc1,"inconclusive: 0.0116 µM [rising, full curve]",
Cc1cccc(N2CCN(C(=O)C3CCC(CNS(=O)(=O)c4cccs4)CC3)CC2)c1C (centres undefined),active: 20.6 µM,
CCN(CC)S(=O)(=O)c1cc(-c2nnc(-c3ccc(Br)cc3)o2)ccc1Cl,"inconclusive: 29.1 µM [cytotoxic, partial curve, poor fit]",
CCOc1ccc(N(Cc2ccc(OC)c(OC)c2)C(=O)c2ccco2)cc1,inactive,
Cc1ccc(C2=NCCn3c2c2ccc([N+](=O)[O-])cc2[n+]3[O-])cc1,"inconclusive: 29.1 µM [cytotoxic, single point]",
CCCCCCSc1ccc([C@@H]2[C@@H]3C(=O)N(C)C(=O)[C@@H]3[C@]3(C(=O)OC)CCCCN23)cc1,"inconclusive: 25.9 µM [cytotoxic, single point]",
Cn1c(-c2ccccc2)cc2c3no[n+]([O-])c3ccc21,active: 3.66 µM,
COCCCNC(=O)CCc1ccccc1,,inconclusive: 30.3%
CCOC(=O)C(C)Sc1nc2ccccc2c(=O)n1CC1CCCCC1 (centres undefined),"inconclusive: 16.4 µM [cytotoxic, single point]",
COc1ccc(N2CCN(c3cc(C(=O)Nc4cc(OC)c(OC)c(OC)c4)ncn3)CC2)cc1OC,"inconclusive: 29.1 µM [cytotoxic, single point]",
